Laboratory results as given in patent US20230174617A1.

Protein sequences, listed by entry. Tags and fused reporters are not part of them. Lines headed by an entry give the natural chain unless they say otherwise; changes in a name come on top.
UniProt P55899: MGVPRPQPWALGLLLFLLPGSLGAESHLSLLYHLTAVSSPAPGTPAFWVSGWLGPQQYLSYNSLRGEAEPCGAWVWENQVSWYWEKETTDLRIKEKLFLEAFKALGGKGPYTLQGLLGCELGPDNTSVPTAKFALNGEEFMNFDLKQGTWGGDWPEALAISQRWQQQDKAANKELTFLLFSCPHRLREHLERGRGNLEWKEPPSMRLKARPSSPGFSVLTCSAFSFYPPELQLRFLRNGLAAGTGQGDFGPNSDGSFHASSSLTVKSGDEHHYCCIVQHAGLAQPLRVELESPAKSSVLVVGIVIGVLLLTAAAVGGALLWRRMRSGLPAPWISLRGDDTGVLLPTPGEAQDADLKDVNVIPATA

Key:
[1] = molecular target: recombinant human neonatal Fc receptor (rhFcRn, R&D systems) (human) (UniProt P55899); assay: SPR, rhFcRn immobilised, PG-11 as analyte
[2] = molecular target: recombinant human neonatal Fc receptor (rhFcRn, R&D systems) (human) (UniProt P55899); assay: SPR steady-state plot, rhFcRn immobilised, PG-11 as analyte

B1: PG-11 (GLP-1E-NTIG) (Fc fusion)
chain: HGEGTFTSDVSSYLEGQAAKEFIAWLVKGGPSSGAPPPSGGGGSGGGGSGGGGSEKEKEEQEERTHTCPPCPSHTQPLGVFLFPPKPKDQLMISRTPEVTCVVVDVSQEDPEVQFNWYVDGVEVHNAKTKPREEQFNSTYRVVSVLTVLHQDWLNGKEYKCKVSNKGLPSSIEKTISKAKGQPREPQVYTLPPSQEEMTKNQVSLTCLVKGFYPSDIAVEWESNGQPENNYKTTPPVLDSDGSFFLYSRLTVDKSRWQEGNVFSCSVLHEALHNHYTQKSLSLSLGK
binding [1]: binds
binding [2]: binds

No constants are given. Whether binding was seen depends on the method and setting. Binding calls can cover weak binding; strength is not graded here.
